Assay results as given in US11279747.
No constants are given. Whether binding was seen depends on the method and setting. Some entries that bind do so weakly or less than the wild type.

By UniProt entry, the sequences of proteins in these tests, tags left out. Where a name states a change or a piece, a line headed by the entry shows the natural chain unless it says otherwise.
UniProt P61769: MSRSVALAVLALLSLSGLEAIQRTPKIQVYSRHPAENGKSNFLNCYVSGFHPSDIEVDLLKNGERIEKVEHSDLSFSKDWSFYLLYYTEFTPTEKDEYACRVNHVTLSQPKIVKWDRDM

Biological target: T1, human PTPRJ (human) (UniProt Q12913)
T1 sequence (looked up): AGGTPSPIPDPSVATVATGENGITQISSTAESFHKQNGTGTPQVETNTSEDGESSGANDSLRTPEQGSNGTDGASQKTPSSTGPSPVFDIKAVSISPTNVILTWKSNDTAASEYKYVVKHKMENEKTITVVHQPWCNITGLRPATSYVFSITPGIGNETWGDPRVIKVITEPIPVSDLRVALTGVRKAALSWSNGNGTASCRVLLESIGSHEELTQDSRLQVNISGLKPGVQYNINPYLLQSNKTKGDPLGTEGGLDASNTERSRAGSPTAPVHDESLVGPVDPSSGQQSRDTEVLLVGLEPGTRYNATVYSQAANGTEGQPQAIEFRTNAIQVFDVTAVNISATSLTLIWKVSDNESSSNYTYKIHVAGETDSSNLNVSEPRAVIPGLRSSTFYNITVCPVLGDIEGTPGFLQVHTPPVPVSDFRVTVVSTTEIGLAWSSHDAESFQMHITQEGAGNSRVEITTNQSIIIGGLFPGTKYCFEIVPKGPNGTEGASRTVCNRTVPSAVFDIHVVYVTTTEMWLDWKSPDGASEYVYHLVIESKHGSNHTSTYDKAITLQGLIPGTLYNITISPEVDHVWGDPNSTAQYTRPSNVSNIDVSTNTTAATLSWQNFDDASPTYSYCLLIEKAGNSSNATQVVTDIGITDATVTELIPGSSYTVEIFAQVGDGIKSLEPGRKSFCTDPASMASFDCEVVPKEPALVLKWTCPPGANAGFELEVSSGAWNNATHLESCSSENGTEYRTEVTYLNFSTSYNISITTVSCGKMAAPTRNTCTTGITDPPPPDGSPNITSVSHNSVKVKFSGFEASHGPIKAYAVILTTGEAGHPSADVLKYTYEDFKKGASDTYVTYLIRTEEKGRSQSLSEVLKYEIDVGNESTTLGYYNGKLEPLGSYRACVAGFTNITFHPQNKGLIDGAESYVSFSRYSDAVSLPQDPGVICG
Assay: ELISA, receptor coated at 10 µg/mL, HLA-β2m-Fc at 10 µg/mL, anti-human Fc-HRP

| binding | Substance |
| --- | --- |
| binds | C12-β2m-Fc (from UniProt P61769 21-119) (Fc fusion) |
| binds | C08-β2m-Fc (from UniProt P61769 21-119) (Fc fusion) |
